Laboratory results as given in article PMC8297594.
These are yes or no findings as the source states them, for the method shown. In cells and extracts the contact can be indirect. Binding can be weak; no strength is given. Sequences can lack the tags named with a protein.

Molecular target: Myc-TcpAh (TIR domain protein of Aeromonas hydrophila JBN2301) (Aeromonas hydrophila JBN2301)
Test: co-IP; HEK293T co-transfected (plasmids 1:1, 48 h); lysis in 20 mM Tris-HCl pH 7.5, 150 mM NaCl, 1 mM EDTA, 1% Triton X-100; mouse anti-Myc or anti-Flag mAb at 4°C overnight, protein A-agarose; Western blot with anti-Myc, anti-GFP or anti-Flag

Binder	binding
EGFP-MyD88 (zebrafish myeloid differentiation factor 88) (protein, UniProt Q5XJ85 1-284) MASKLSIDHEAIPVTALNCSFRKKLGLFLNPTNTVAADWRTVAELMDFTYLEIKNFEKRDCPFEKVLTDWETRPDATVANLLSILEKAERKDVISELKEILDDDCRKYMERQQRKPLQVPVVDSCGPRTQEREGITLYDDPQGLTPETFDAFICYCQSDIQFVHEMIKQLEHTEYNLKLCVFDRDVLPGTCVWTIASELIEKRCKRMVVVISDDYLDSDACDFQTKFALSLCPGARTKRLIPVVYKSMKRPFPSILRFLTICDYSKPCTQVWFWTRLAKALSLP	binds
EGFP-tagged MyD88 TIR domain (148–284 aa), zebrafish (domain or fragment, UniProt Q5XJ85 148-284) TFDAFICYCQSDIQFVHEMIKQLEHTEYNLKLCVFDRDVLPGTCVWTIASELIEKRCKRMVVVISDDYLDSDACDFQTKFALSLCPGARTKRLIPVVYKSMKRPFPSILRFLTICDYSKPCTQVWFWTRLAKALSLP	binds
EGFP-tagged MyD88 DD (11–101 aa), zebrafish (domain or fragment, UniProt Q5XJ85 11-101) AIPVTALNCSFRKKLGLFLNPTNTVAADWRTVAELMDFTYLEIKNFEKRDCPFEKVLTDWETRPDATVANLLSILEKAERKDVISELKEIL	binds
Flag-TRIF (zebrafish TIR domain-containing adapter inducing interferon-β) (protein, UniProt Q1LUQ2 1-566) MAEGGMKPSEGGCPNLGKVFEILSQAPQERLFSLTYKMGRKPTEELVHAMCLIFLKKHEAAHAKLTAIKDSRVGNYLAEMIKTHGERLNCSHIGGFMQTDVNSLLDIARIFAILVQESLCDKSHRDKAYCKAVESCKTAGLLSLDIEEEVKQVCGPDVISTSNSELPTEMCNPNSLKVSDINPDPLPPNSNLDVSSYYLEISSPTASEGNIEESKPMSLHTPTEFKSQNNLRSCHDKSTNIFANSQAQTAVVNDTASSNRCRHDSRPSQFVMSKNTNFSSSPNDGAKPKAQPINANDRKPPTQDNSFHPTLLSDIDETFYAFVILHEAEDADEAQRLREKLEGIISANGATFSEDFAQAGRSTLRCIEDAIDNSAFVLLLLTQNFKSNQSMTTTDSAIVNSLEHHHKLNSVIPLLPRENRLSRKNIPLVLQTKVPLDESNRTFERKALKALSQDAVEKQRKIWMKKQTLKKLEEEYKRRQEENFINANLRLEREKLARLKLESESPHNNMFHSSSAQPPSCGPMLQQHDSWPQKPSYIHIENAQNIMIGNHSTMNFEHTKSSAEES	no binding
